Results as given in PubChem BioAssay AID758 (NMMLSC, 2007).
In all, about 190,000 compounds went through this assay and about 110 (0.058%) were called active. This list was built around the results that the source calls inconclusive (neither active nor inactive); the mix of calls is not that of the screen.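 The calls were made as follows: active = fluorescent GTP binding to Rab7 beads changed by at least 20 points from the 100% baseline, either direction, mostly lower; inconclusive = compound itself probably fluorescent, or too few beads counted; inactive = the rest.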

tested on: Rab7 GTPase wild type (dog), Bodipy-FL-GTP binding; assay: modulators of GTP binding to Rab7, primary screen, biochemical, wildtype, multiplex bead flow cytometry (AID 758); settings: GST-Rab7 beads, fluorescent GTP binding, at 10 µM, actives lie on both sides, untreated = 100%, excess cold GTP = 0%;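 also: median green fluorescence of bound Bodipy-FL-GTP per Rab7 bead population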

| Structure (SMILES) | GTP binding activity (percent of control) |
| --- | --- |
| O=C(O)CSc1ncnc2sc3c(c12)CCCC3 | inconclusive: 93% |
| O=C(CCn1cnnn1)Nc1ccc(Cl)c(Cl)c1 | inactive: 104% |
| S=c1[nH]nc(-c2ccc3ccccc3n2)n1-c1ccccc1Cl | inconclusive: 46% |
| Cn1cnnc1-c1cccc(NC(=O)c2cc(F)c(F)cc2Cl)c1 | inactive: 99% |
| Cn1c(=O)c2c(nc(NCC3CCCO3)n2C)n(C)c1=O (configuration not stated) | inconclusive: 106% |
| O=c1c2ccccc2c(/C=N/n2cnnc2)c(O)n1-c1ccccc1F | inconclusive: 89% |
| O=[N+]([O-])c1ccc(O)c(/C=N/NC2=NS(=O)(=O)c3ccccc32)c1 | inconclusive: 89% |
| COc1ccc(-c2cc(N3C(=O)Nc4ccccc4N3O)n[nH]2)c(OC)c1 | inconclusive: 91% |
| O=C(CCc1c[nH]c2ccccc12)NCc1ccco1 | inconclusive: 97% |
| Cc1cc(N2CCOCC2)nc2ccc(NC(=O)CCC(=O)N3CCC(C)CC3)cc12 | inconclusive: 105% |
| CCC1C(=O)CC(c2ccccc2)NC1c1ccccc1 (configuration not stated) | inconclusive: 98% |
| Cc1cc(C(=O)OCC(=O)Nc2ccc(S(N)(=O)=O)cc2)c2ccccc2n1 | inactive: 100% |
| CS(=O)(=O)c1nc(-c2ccc(F)cc2)cc(C(F)(F)F)n1 | inconclusive: 95% |
| O=C(CSc1cccc[n+]1[O-])NC(=O)c1ccc(OC(F)F)cc1 | inactive: 94% |
| CC(C)N(Cc1ccccc1)CC(O)COc1ccc(S(=O)(=O)N2CCOCC2)cc1Cl (configuration not stated) | inactive: 99% |
| CCN(C(=O)COC(=O)/C=C/c1ccccc1)C1CCCCC1 | inactive: 97% |
| CCOC(=O)c1c(C)n(C)c2ccc(OC)c([N+](=O)[O-])c12 | inactive: 105% |
| CC(C)(C)n1nc2c(c1NC(=O)Cc1cccc3ccccc13)CS(=O)(=O)C2 | inconclusive: 96% |
| Cc1cc(C(=O)N/N=C/c2ccco2)n[nH]1 | inconclusive: 98% |

| Structure (SMILES) | GTP binding activity (percent of control) |
| --- | --- |
| COc1cc(/C=N/NC(=O)CCn2nnc3ccccc32)ccc1O | inactive: 99% |
| CCOc1ncccc1C(=O)OCC(=O)NCCc1ccc(OC)cc1 | inconclusive: 104% |
| O=C1NCCN1C(=O)c1cccc(Cl)c1 | inconclusive: 106% |
| COC(=O)c1ccccc1-c1ccc(C(c2c(C)[nH][nH]c2=O)c2c(C)[nH][nH]c2=O)o1 | inconclusive: 89% |
| CCNc1cc2n(c(=O)n1)CCc1cc(OC)c(OC)cc1-2 | inactive: 87% |
| CCc1nnc(NC(=O)CSc2nnc(CNc3ccc(F)cc3)n2C2CCCCC2)s1 | inconclusive: 174% |
| N#C/C(=C/c1ccc(-c2ccccc2)o1)c1nc(-c2cccs2)cs1 | inconclusive: 146% |
| O=C1C2C3C=CC(C2C(=O)N1C1CCCCC1)C1C2C(=O)N(C4CCCCC4)C(=O)C2C31 (configuration not stated) | inactive: 98% |
| O=C(CSc1ncnc2ccccc12)NCCCO | inconclusive: 104% |
| O=C(CCNS(=O)(=O)c1cccc2nsnc12)N1CCN(c2ccccn2)CC1 | inactive: 104% |
| CCOc1cc(NS(=O)(=O)c2ccc(Cl)cc2)c(OCC)cc1NC(=O)CC(C)C | inactive: 99% |
| C=CCn1c(Cn2nnc3ccccc32)nnc1SCC(=O)N/N=C/c1cc(Br)cc(OC)c1O | inconclusive: 90% |
| CCOc1ccc(CN(C)CC(=O)Nc2cccc(C)c2)cc1OC | inconclusive: 100% |
| Cc1cc(C)nc(-n2nc(C)cc2NC(=O)c2cccc(S(=O)(=O)N3CCCCC3)c2)n1 | inconclusive: 97% |
| Cc1nn(Cc2ccccc2)c(C)c1NC(=O)CSc1nc2c(c(C(F)(F)F)n1)CCc1ccccc1-2 | inactive: 92% |
| CC(=O)Nc1cc2c(cc1NC(=O)Cn1nc(-c3ccccc3F)ccc1=O)OCCO2 | inconclusive: 101% |
| O=C(Nc1cc(C(=O)N2CCCC2)ccc1N1CCCC1)c1ccccc1F | inconclusive: 103% |
| CCOC(=O)N1CCC(NC(=O)CS(=O)(=O)Cc2nc(-c3ccccc3C)oc2C)CC1 | inconclusive: 104% |
| COc1ccccc1NC(=O)c1ccc(NC(=O)COC(=O)CCC2CCCC2)cc1 | inconclusive: 94% |

4 compounds picked at random from the list so far:

| Structure (SMILES) | GTP binding activity (percent of control) |
| --- | --- |
| Cc1nn(Cc2ccccc2)c(C)c1NC(=O)CSc1nc2c(c(C(F)(F)F)n1)CCc1ccccc1-2 | inactive: 92% |
| COc1ccccc1NC(=O)c1ccc(NC(=O)COC(=O)CCC2CCCC2)cc1 | inconclusive: 94% |
| CCNc1cc2n(c(=O)n1)CCc1cc(OC)c(OC)cc1-2 | inactive: 87% |
| O=C(CCc1c[nH]c2ccccc12)NCc1ccco1 | inconclusive: 97% |

Next entries follow.

| Structure (SMILES) | GTP binding activity (percent of control) |
| --- | --- |
| CS(=O)(=O)NN1C(=O)c2ccccc2NC12CCCC2 | inactive: 101% |
| Brc1ccc(OCc2ccccc2)c(CNCc2ccncc2)c1 | inconclusive: 92% |
| CCOC(=O)c1c(C)[nH]c(C)c1C(=O)COc1ncnc2cc([N+](=O)[O-])ccc12 | active: 74% |
| COc1ccc(NC(=O)c2ccc3c(c2)OCO3)cc1[N+](=O)[O-] | inconclusive: 95% |
| COc1ccc(-n2c(SCC(=O)NCCCN3CCCC3=O)nnc2C(C)N2CCCCC2)cc1 (configuration not stated) | inconclusive: 95% |
| COc1ccccc1NC(=O)c1cccc(NC(=O)c2ccco2)c1 | inconclusive: 94% |
| O=C(COC(=O)c1ccco1)Nc1cccc(Br)c1 | inconclusive: 96% |
| O=c1[nH]cnc2c1C(c1ccccc1[N+](=O)[O-])c1c(nc[nH]c1=O)O2 | inconclusive: 91% |
| O=C(N/N=C/c1cc2ccccc2nc1Cl)/C(=C/c1cccs1)NC(=O)c1ccccc1 | inconclusive: 94% |
| Cc1cc(C)cc(C(=O)NCC(=O)OC(C)C(=O)N(C)c2ccccc2)c1 (configuration not stated) | inactive: 100% |
| CN(NS(=O)(=O)c1ccc(Cl)cc1)c1nc(C(F)(F)F)nc2ccccc12 | inconclusive: 96% |
| CC1Cc2ccccc2N1C(=O)C1CCCN(S(=O)(=O)c2cccc3cccnc23)C1 (configuration not stated) | inactive: 98% |
| CCc1nnc(NC(=O)Cc2ccc(Br)cc2)s1 | inconclusive: 100% |
| COc1ccc(NC(=O)c2ccc(Cl)nc2)cc1S(=O)(=O)N1CCCCC1 | inconclusive: 91% |
| O=C(c1ccc(S(=O)(=O)NCc2ccco2)cc1)N1CCN(Cc2ccccc2)CC1 | inconclusive: 103% |
| Fc1cccc(F)c1-n1c(CN2CCOCC2)csc1=S | inconclusive: 96% |
| CN(C(=O)COC(=O)CNC(=O)c1sc2ccccc2c1Cl)c1ccccc1 | inactive: 91% |
| CCCn1nc(C(=O)Nc2cccc(C(=O)OC)c2)c2ccccc2c1=O | inconclusive: 94% |
| O=C(Nc1ccc2[nH]c(=O)[nH]c2c1)c1c(F)c(F)c(F)c(F)c1F | inactive: 97% |
